{
  "source": "PubChem BioAssay AID1347076",
  "about": "(National Center for Advancing Translational Sciences (NCATS), 2019)",
  "note": "Hit rate of the full screen: of about 400,000 compounds, about 13,000 (3.2%) were called active. Inconclusive means that the source gave no clear call. Such entries were picked first, then a sample of the others. Calls come from the whole dose curve; as a rule, active = well fitted cell-killing curve with a large enough effect; inconclusive = small, poorly fitted or top-dose-only effect, or effect the other way; inactive = flat fitted curve, though single readings scatter. A potency beside an inconclusive call is a rough fit, not a confirmed value. % is set by controls: 0 for no effect and ±100 for the full control effect; potency is the fitted concentration of half-maximal effect.",
  "data": [
    {"experiment": "qHTS assay for MDR1-selective chemotherapeutics: Primary screen using the drug-selected MDR subline cells KB-V1; note: nearly all actives have a fitted effect of over 60% in size", "settings": "KB-V1 MDR cells viability, CellTiter-Glo, 72 h; activity change, negative = cytotoxicity: at 46.1 µM (top of the series)", "in_short": "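Following 72 h at 37 degrees C with compound, KB-V1 cell viability was read by CellTiter-Glo luminescence, medium being phenol-red-free DMEM plus 10% FBS; concentration-response parameters came from normalized, curve-fitted qHTS data.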", "values": [
      {"smiles": "COc1c[nH]n(C2CCCCC2)c(=O)c1=O", "Potency": "inconclusive: 18.4 µM [cytotoxic, single point]"},
      {"smiles": "COc1ccc(-c2ccc(C(=O)Nc3cccc(NS(C)(=O)=O)c3)c3occc23)c(C)c1", "Potency": "inconclusive: 29.1 µM [cytotoxic, single point]"},
      {"smiles": "O=S(=O)(NCC(c1ccccc1)N1CCc2ccccc21)c1ccc(Cl)cc1", "note": "(stereo not given)", "Potency": "inconclusive: 20.6 µM [cytotoxic, single point]"},
      {"smiles": "O=C(CNCCc1ccc(F)cc1)Nc1cc(F)ccc1F", "activity change, negative = cytotoxicity": "inactive: 16.7%"},
      {"smiles": "Cc1cccc(C)c1-n1c(C)cc(/C=C2\\C(=O)NN(c3ccccc3)C2=O)c1C", "Potency": "inconclusive: 6.51 µM [cytotoxic, partial curve]"},
      {"smiles": "CCN(CC)C(=O)c1sc2c(c1C)c(=O)n(-c1ccc(OC)cc1OC)c(=O)n2CC(=O)Nc1ccccc1", "Potency": "inconclusive: 29.1 µM [rising, single point]"},
      {"smiles": "O=C(CSc1cccc2cccnc12)Nc1cccc(S(=O)(=O)N2CCOCC2)c1", "Potency": "inconclusive: 23.1 µM [cytotoxic, single point]"},
      {"smiles": "COc1cc(C)c(C(C)C)cc1S(=O)(=O)n1cnc(C)c1", "Potency": "inconclusive: 2.91 µM [cytotoxic, partial curve, poor fit]"},
      {"smiles": "COc1ccc(C(=O)c2cn(Cc3ccccc3OC)c3cc4c(cc3c2=O)OCO4)cc1", "activity change, negative = cytotoxicity": "inactive: 20.2%"},
      {"smiles": "COc1ccc(/C=c2\\s/c(=C\\C(=O)C(C)(C)C)[nH]c2=O)cc1O", "activity change, negative = cytotoxicity": "inactive: -18.5%"},
      {"smiles": "COC(=O)c1ccc(C(=O)OC)c(NC(=O)CSCc2ccc(Br)cc2)c1", "Potency": "inconclusive: 29.1 µM [cytotoxic, single point]"},
      {"smiles": "COc1ccccc1CNC(=O)COC(=O)c1cc(C)oc1C", "Potency": "inconclusive: 7.31 µM [cytotoxic, partial curve]"},
      {"smiles": "CN1CCOC1c1ccc(C2OCCN2C)cc1", "note": "(stereo not given)", "Potency": "inconclusive: 29.1 µM [rising, single point]"},
      {"smiles": "Cc1cc(C)n(CCCNC(=O)c2cc(COc3ccc(C)c(C)c3)on2)n1", "Potency": "inconclusive: 9.2 µM [cytotoxic, partial curve]"},
      {"smiles": "COc1ccc(N2CCN(C3CCCN(C(=O)CCN4CCCCO4)C3)CC2)cc1", "note": "(stereo not given)", "activity change, negative = cytotoxicity": "inactive: -5.33%"},
      {"smiles": "O=C(NC1CCCC1)c1cc2nc(-c3ccco3)cc(C(F)(F)F)n2n1", "activity change, negative = cytotoxicity": "inactive: -20.2%"},
      {"smiles": "Cc1nc(C(=O)Nc2ccccc2Cl)cc2c1[nH]c1ccccc12", "Potency": "active: 2.91 µM"},
      {"smiles": "CCOc1ccc(NC(=O)c2sc(N3CCOCC3)nc2-c2ccccc2)cc1", "Potency": "inconclusive: 8.2 µM [cytotoxic, partial curve]"},
      {"smiles": "O=C1c2cccc3c(O)ccc(c23)C(=O)N1Cc1ccco1", "Potency": "inconclusive: 29.1 µM [cytotoxic, single point]"},
      {"smiles": "Cc1cc(C)n2nc(SCC(=O)N3CCc4ccccc43)nc2n1", "Potency": "inconclusive: 7.31 µM [cytotoxic, partial curve]"},
      {"smiles": "COc1ccc(CCNC(=O)C(=O)NCc2ccccc2)cc1OC", "Potency": "inconclusive: 3.66 µM [cytotoxic, partial curve, poor fit]"},
      {"smiles": "O=C(CN1C(=O)COc2ccc(S(=O)(=O)N3CCCCCC3)cc21)N1CCN(c2ccc(Cl)cc2)CC1", "Potency": "inconclusive: 5.17 µM [cytotoxic, full curve]"},
      {"smiles": "COC(=O)c1cc(NC(=O)COC(=O)C2COc3ccccc3O2)cc(C(=O)OC)c1", "note": "(stereo not given)", "activity change, negative = cytotoxicity": "inactive: -12.2%"},
      {"smiles": "CCOC(=O)C(C)n1nc(/C=C/c2ccccc2)ccc1=O", "note": "(stereo not given)", "Potency": "inconclusive: 23.1 µM [cytotoxic, partial curve, poor fit]"},
      {"smiles": "CCN(CC)CCNC(=O)c1cc2c(=O)n(C)c3ccccc3c2s1", "Potency": "inconclusive: 14.6 µM [cytotoxic, partial curve]"},
      {"smiles": "Cc1ccc(C)c(Nc2nn3c(=O)c4ccc(C(=O)NCc5ccccc5)cc4nc3s2)c1", "Potency": "inconclusive: 32.6 µM [rising, single point]"},
      {"smiles": "Cc1sc(NC(=O)CSc2nnc(N)s2)c(C#N)c1C", "activity change, negative = cytotoxicity": "inactive: -8.03%"},
      {"smiles": "CCC1CCCCN1CCn1c(=S)[nH]c2cc(OC)c(OC)cc2c1=O", "note": "(stereo not given)", "Potency": "inconclusive: 14.6 µM [cytotoxic, partial curve]"},
      {"smiles": "CCCCN(c1ccccc1)S(=O)(=O)c1cccc(C(=O)O)c1", "activity change, negative = cytotoxicity": "inactive: -0.0431%"},
      {"smiles": "COc1ccc(-c2ccc(=O)n(CC(=O)Nc3cc(OC)ccc3OC)n2)cc1", "activity change, negative = cytotoxicity": "inactive: -5.26%"},
      {"smiles": "Cc1cccc(Cn2c(N3CCN(C)CC3)nc3c2c(=O)n(C)c(=O)n3C)c1", "Potency": "inconclusive: 14.6 µM [cytotoxic, partial curve]"},
      {"smiles": "CC(NCC(O)COCCC12CC3CC(CC(C3)C1)C2)c1ccccc1", "note": "(stereo not given)", "Potency": "inconclusive: 0.461 µM [cytotoxic, full curve, poor fit]"},
      {"smiles": "CC(=O)C[C@H]1c2cc(C(F)(F)F)ccc2S(=O)(=O)N1C1CCCC1", "Potency": "inconclusive: 11.6 µM [cytotoxic, single point]", "activity change, negative = cytotoxicity": "inconclusive: -3.93%"},
      {"smiles": "Cc1cccc(-n2ncc3c(NNC(=O)c4ccccc4Cl)ncnc32)c1", "Potency": "inconclusive: 32.6 µM [cytotoxic, partial curve, poor fit]"},
      {"smiles": "CCOC(=O)c1cc(-c2ccc(C)cc2)n(CCC(=O)NCCCOC)c1C", "activity change, negative = cytotoxicity": "inactive: 0.539%"},
      {"smiles": "O=C1CC(c2ccc(Cl)c([N+](=O)[O-])c2)c2ccc3ccccc3c2N1", "note": "(stereo not given)", "Potency": "inconclusive: 7.31 µM [cytotoxic, partial curve]"},
      {"smiles": "COc1ccc(N2CCN(C(=O)c3ccccc3)CC2)c([N+](=O)[O-])c1", "Potency": "inconclusive: 20.6 µM [cytotoxic, single point]"},
      {"smiles": "Cc1nn(CCC(=O)Nc2cccc(C#N)c2)c(C)c1S(=O)(=O)N1CCCCC1", "activity change, negative = cytotoxicity": "inactive: 1.32%"},
      {"smiles": "CC(=O)c1ccc(-c2ccc(C(=O)NCC3CCCO3)o2)cc1", "note": "(stereo not given)", "activity change, negative = cytotoxicity": "inactive: -15.6%"},
      {"smiles": "COc1ccc(N2CCN(C(=O)COc3ccc(Cl)cc3Cl)CC2)cc1", "Potency": "inconclusive: 29.1 µM [cytotoxic, single point]"},
      {"smiles": "COc1ccc(C(=O)Nc2ccc(C(=O)N3CCOCC3)cc2)cc1OC", "activity change, negative = cytotoxicity": "inactive: -18.4%"},
      {"smiles": "O=c1[nH]cnc2c1ncn2[C@H]1C[C@H](O)[C@@H](CO)O1", "Potency": "inconclusive: 0.651 µM [rising, full curve, poor fit]"},
      {"smiles": "CCCCC1(c2ccc(F)cc2)NC(=O)N(CC(=O)Nc2ccc(N3CCOCC3)cc2)C1=O", "note": "(stereo not given)", "activity change, negative = cytotoxicity": "inactive: -24.4%"},
      {"smiles": "Cc1cccc(C(=O)NC(=S)NNC(=O)Cc2ccccc2)c1", "activity change, negative = cytotoxicity": "inactive: 0%"}
    ]}
  ]
}
